PubChem BioAssay AID1259405 | NCATS | 2018
Assay: 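Silenced genes that increase secreted GFP made by CHO cells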 (primary screen). Cell system: Chinese hamster CHO-K1 ovary cells with stable secreted eGFP expression. Knock-down reagent: single siRNA against mouse genes, 0.8 pmol siRNA per well (2 µl of 400 nM stock). Timing: 3 days. Measured: 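Per-well intracellular GFP measured by laser scanning cytometry, plus viability from ATP luminescence, each relative to plate median of non-targeting control wells, in %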. Scale: GFP, % of control: higher = more GFP per well, higher productivity; viability (ATP), % of control: higher = more viable cells (more ATP). Active means: 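Called active when intracellular GFP, relative to negative control, is at or above 120%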.
This is one part, drawn at random, of about 50,000 reagents. In the full data, about 4,000 (8%) were called active. 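Mouse siRNA library applied to hamster cells; one well for each siRNA.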 A number with no mark means an inactive call. Reagents against one gene are numbered here.

gene knocked down | siRNA no. | GFP, % of control | viability (ATP), % of control
Cdh17 (cadherin 17) | 1 | 38.8 | 47.7
Cdh17 (cadherin 17) | 2 | 75.5 | 61.5
Cdh17 (cadherin 17) | 3 | 124 (active) | 87.4
Ercc4 | 1 | 88.1 | 93.4
Ercc4 | 2 | 60.1 | 72.7
Ercc4 | 3 | 72.7 | 82.3
Hsd17b8 (hydroxysteroid 17-beta dehydrogenase 8) | 1 | 49.2 | 75.8
Hsd17b8 (hydroxysteroid 17-beta dehydrogenase 8) | 2 | 72.2 | 66.6
Hsd17b8 (hydroxysteroid 17-beta dehydrogenase 8) | 3 | 74.9 | 73.8
Or8c8 (olfactory receptor family 8 subfamily C member 8) | 1 | 51.3 | 53.5
Or8c8 (olfactory receptor family 8 subfamily C member 8) | 2 | 100 | 108
Or8c8 (olfactory receptor family 8 subfamily C member 8) | 3 | 77.6 | 99
Mpdu1 (mannose-P-dolichol utilization defect 1) | 1 | 111 | 76
Mpdu1 (mannose-P-dolichol utilization defect 1) | 2 | 72.6 | 87.8
Mpdu1 (mannose-P-dolichol utilization defect 1) | 3 | 43.9 | 42.3
Carnmt1 (carnosine N-methyltransferase 1) | 1 | 71.7 | 72.6
Carnmt1 (carnosine N-methyltransferase 1) | 2 | 69.1 | 49.4
Carnmt1 (carnosine N-methyltransferase 1) | 3 | 80.5 | 81.9
Sema5a | 1 | 59.4 | 57.6
Sema5a | 2 | 66.2 | 85.4
Sema5a | 3 | 101 | 107
Adam1a (a disintegrin and metallopeptidase domain 1a) | 1 | 72.5 | 111
Adam1a (a disintegrin and metallopeptidase domain 1a) | 2 | 65.7 | 80.1
Adam1a (a disintegrin and metallopeptidase domain 1a) | 3 | 68.5 | 100
Scgb3a1 (secretoglobin, family 3A, member 1) | 1 | 66.2 | 51.7
Scgb3a1 (secretoglobin, family 3A, member 1) | 2 | 61.4 | 39.8
Scgb3a1 (secretoglobin, family 3A, member 1) | 3 | 60.3 | 97.6
Sesn3 (sestrin 3) | 1 | 62.4 | 45.1
Sesn3 (sestrin 3) | 2 | 85.5 | 90.4
Sesn3 (sestrin 3) | 3 | 47.8 | 58.4
Zcchc14 (zinc finger, CCHC domain containing 14) | 1 | 76.2 | 84
Zcchc14 (zinc finger, CCHC domain containing 14) | 2 | 50.3 | 67.9
Zcchc14 (zinc finger, CCHC domain containing 14) | 3 | 77.6 | 102
Cldn8 (claudin 8) | 1 | 56.2 | 54.7
Cldn8 (claudin 8) | 2 | 97.9 | 45.8
Cldn8 (claudin 8) | 3 | 101 | 78.4
Isyna1 (myo-inositol 1-phosphate synthase A1) | 1 | 116 | 135
Isyna1 (myo-inositol 1-phosphate synthase A1) | 2 | 57.2 | 63.9
Isyna1 (myo-inositol 1-phosphate synthase A1) | 3 | 62.4 | 110
Echdc3 (enoyl Coenzyme A hydratase domain containing 3) | 1 | 55.2 | 60.6
Echdc3 (enoyl Coenzyme A hydratase domain containing 3) | 2 | 63.4 | 95.2
Echdc3 (enoyl Coenzyme A hydratase domain containing 3) | 3 | 78.6 | 76.4
Rbp2 (retinol binding protein 2, cellular) | 1 | 112 | 101
Rbp2 (retinol binding protein 2, cellular) | 2 | 104 | 108
Rbp2 (retinol binding protein 2, cellular) | 3 | 71.2 | 95.8
Glyctk (glycerate kinase) | 1 | 110 | 89.2
Ropn1 (ropporin, rhophilin associated protein 1) | 1 | 62.7 | 52.3
Ropn1 (ropporin, rhophilin associated protein 1) | 2 | 149 (active) | 36.1
Ropn1 (ropporin, rhophilin associated protein 1) | 3 | 55.9 | 73.2
4632404H12Rik (RIKEN cDNA 4632404H12 gene) | 1 | 79.5 | 82.7
4632404H12Rik (RIKEN cDNA 4632404H12 gene) | 2 | 69.3 | 75.4
4632404H12Rik (RIKEN cDNA 4632404H12 gene) | 3 | 62.7 | 106
Xrcc3 (X-ray repair complementing 3) | 1 | 166 (active) | 141
Xrcc3 (X-ray repair complementing 3) | 2 | 75.9 | 104
Sfn (stratifin) | 1 | 81.4 | 94.6
Sfn (stratifin) | 2 | 50.6 | 59.7
Sfn (stratifin) | 3 | 48.2 | 47.1

10 entries already listed, ordered by “viability (ATP), % of control”, descending.
gene knocked down | siRNA no. | GFP, % of control | viability (ATP), % of control
Adam1a (a disintegrin and metallopeptidase domain 1a) | 3 | 68.5 | 100
Scgb3a1 (secretoglobin, family 3A, member 1) | 3 | 60.3 | 97.6
Sesn3 (sestrin 3) | 2 | 85.5 | 90.4
Zcchc14 (zinc finger, CCHC domain containing 14) | 1 | 76.2 | 84
Adam1a (a disintegrin and metallopeptidase domain 1a) | 2 | 65.7 | 80.1
Zcchc14 (zinc finger, CCHC domain containing 14) | 2 | 50.3 | 67.9
Sesn3 (sestrin 3) | 3 | 47.8 | 58.4
Scgb3a1 (secretoglobin, family 3A, member 1) | 1 | 66.2 | 51.7
Sesn3 (sestrin 3) | 1 | 62.4 | 45.1
Scgb3a1 (secretoglobin, family 3A, member 1) | 2 | 61.4 | 39.8
